In publication PMC10675528, “N-Succinylaspartic-Acid-Conjugated Riluzole Is a Safe and Potent Colon-Targeted Prodrug of Riluzole against DNBS-Induced Rat Colitis” (Pharmaceutics, 2023):

Experiments:
[1] = RLZ concentration in blood (plasma) after oral administration; assay type: in vivo, Sprague-Dawley rats; settings: male, Sprague-Dawley, rat, oral RLZ 10 mg/kg, sampled at 4, 8, 12 h, read-out: time of peak concentration of RLZ in blood
Procedure: The plasma (0.25 mL) was extracted with EA (0.7 mL), and the organic layer (0.5 mL) was evaporated and dissolved in mobile phase A or B (0.1 mL). After filtration through a membrane filter (0.45 μm), the filtrate (20 μL) was injected to HPLC. To determine the concentrations of SAR and RAS in the blood, MeOH (0.9 mL) was added to the plasma (0.1 mL) and centrifuged at 10,000× g at 4 °C for 10 min. After filtration of the supernatants through a membrane filter (0.45 μm), the filtrate (20 μL) was injected to HPLC.

physchem = settings: pH 6.8

## Nc1nc2ccc(OC(F)(F)F)cc2s1 [RLZ, riluzole]
[1]
  Tmax: 4 h
physchem
  logD: 3.5
